The source of these data is PubChem BioAssay AID493014 (National Center for Advancing Translational Sciences (NCATS), 2011).

A word on the AC50: it is the concentration giving half of the maximal activity seen.

A short description of the assay: qHTS Assay to Find Inhibitors of Chronic Active B-Cell Receptor Signaling. The conditions noted are these: ABC-DLBCL IkBa-CBG/CBR reporter, luminescence ratio (green luciferase fused to IkBa over red control in TMD8 lymphoma cells), 4 h. A digest of the protocol: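 TMD8 human ABC-DLBCL cells with doxycycline-inducible IκBα–green luciferase fusion and unfused red luciferase, in 0.5% FBS medium; compounds up to 46 uM, 4 h at 37C. Green/red luminescence ratio, filter-overlap corrected, fitted to concentration-response curves.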
(In general: In qHTS, concentration-response curves come from the screen itself.)

Where [1] appears, read: measured here: CBR red luminescence, cell number.
[2] abbreviates: measured here: IkBa-CBG green luminescence.

Molecules are shown by their SMILES. This is one part of the list. Shown are side measurements of this screen, not its main read-out; they come without a call. Compounds called inactive in the main read-out are mostly missing here. The note in brackets gives the kind of curve behind each potency; many fits are weak.

For `Cn1c(CN2CCCCC2)nc2cc(NC(=O)c3cccc(Br)c3)ccc21`, the concentration at half-maximal activity (AC50) under setting [1] was 11.6 µM [falling, partial curve]. `O=C(Nc1cccnc1)c1ccccc1-c1nc(-c2ccccc2F)no1`: the AC50 under setting [1] is 13 µM [rising, partial curve, poor fit]. For `CC1=C(C)C(C)=C(C#N)C(=C(C#N)C#N)N1`, under setting [1], the AC50 is 35.5 µM [falling, single point]. Take `O=C(N/N=C/C(Cl)=C/c1ccccc1)c1ccco1`: under setting [1], the AC50 is 12.6 µM [falling, partial curve, poor fit]. On the same count and under the same terms, then `CCOc1ccccc1OCCCC(=O)Nc1sccc1C(N)=O`, with 8.2 µM [falling, partial curve]. Consider `COC(=O)c1ccc2c(c1)C(=O)N(C1CCCCC1)C2=O`, for which the AC50 under setting [1] was 4.47 µM [rising, partial curve]. Take `COc1cccc(/C=C/C(=O)c2cccc([N+](=O)[O-])c2)c1OC`: under setting [2], the AC50 is 20 µM [falling, partial curve, poor fit]. Regarding `CSc1ccccc1OCc1cc(C(=O)NCc2csc(C(C)C)n2)no1`, under setting [1], the half-maximal activity concentration (AC50) was 12.6 µM [falling, single point].

As for `COc1ccc(Cl)cc1NC(=S)Nc1cccnc1`, under setting [1], the AC50 was 35.5 µM [rising, single point].

As to `Cc1csc(NC(=O)CSc2nnc3c4ccccc4nc(C(C)(C)C)n23)n1`, under setting [1], the AC50 was 3.16 µM [falling, single point].

As for `Cc1ccc(CSCc2nc3ccccc3[nH]2)cc1`, the AC50 under setting [1] was 7.94 µM [rising, partial curve, poor fit].

`COCCCNC(=S)Nc1ccc(CC(=O)O)cc1`: under setting [1], the AC50 is 11.6 µM [rising, partial curve, poor fit]. The same measure, in the same setting: then `COc1ccc(Br)cc1CNC(=O)c1cc(=O)[nH]c2ccc(S(=O)(=O)N3CCCC3)cc12`, with 0.251 µM [rising, full curve, poor fit].

In the case of `c1ccc(-c2ccc(-c3cnc4n3CCCCC4)cc2)cc1`, the AC50 under setting [1] is 1.3 µM [rising, full curve, poor fit]. As for `O=C(O)c1cccc(-c2ccc3c(c2)OCO3)c1`, the AC50 under setting [1] was 22.4 µM [falling, single point]. Consider `Cn1cccc1/C=C1\SC(=O)N(c2ccccc2)C1=O`, for which the AC50 under setting [1] is 1.64 µM [falling, full curve].

For `O=C(O)c1cc2nc3c(c(C(F)(F)F)n2n1)CCc1ccccc1-3`, the half-maximal activity concentration (AC50) under setting [2] is 15.8 µM [rising, partial curve, poor fit]. As to `COc1cc(/C=C(\NC(C)=O)C(=O)Nc2cccc(O)c2)ccc1OC(C)=O`, the AC50 under setting [1] was 11.6 µM [rising, partial curve]. On to `COC(=O)CCN1CCc2cc(N=Nc3ccc([N+](=O)[O-])cc3)ccc21`, for which the AC50 under setting [1] is 11.2 µM [rising, partial curve, poor fit]. `CC(CN1CCOCC1)OC(=O)c1ccccc1Br` (configuration not stated): under setting [1], the AC50 is 2.91 µM [falling, single point].

For `C=CCn1c(C)cc(C(=O)CSc2nnc(C3CC3)n2C2CC2)c1C`, the AC50 under setting [2] is 23.1 µM [falling, partial curve, poor fit]. As to `Cc1cc(OCC(=O)Nc2ccc(S(=O)(=O)N3CCN(C)CC3)cc2)cc(C)c1Cl`, under setting [1], the AC50 was 32.6 µM [falling, single point]. As for `CC(C)CCC1(C)NC(=O)N(CC(=O)Nc2ccc3c(c2)OCCO3)C1=O` (configuration not stated), the AC50 under setting [1] was 3.26 µM [falling, partial curve, poor fit]. The same measure, in the same setting: then `c1cc2c(cc1Oc1nc(N3CCOCC3)nc(N3CCOCC3)n1)OCO2`, with 1.03 µM [rising, partial curve]; and `COc1ccccc1CNC(=O)CCCOc1cc(=O)n(C)c2ccccc12`, with 35.5 µM [rising, partial curve, poor fit].

Regarding `O=C(Nc1nc2ccccc2s1)C1CCCO1` (configuration not stated), the AC50 under setting [1] was 10 µM [falling, partial curve]. On to `CC12CCC(C(=O)NCc3ccc(F)cc3)(OC1=O)C2(C)C` (configuration not stated), for which the AC50 under setting [1] is 15.8 µM [rising, partial curve, poor fit]. Still for that read-out and setting: then `COC(=O)c1[nH]c2ccc(Cl)cc2c1NC(=O)CCN1CCN(C2CCCCC2)CC1`, with 13 µM [rising, partial curve, poor fit]; and `Cc1cccc2sc(N(CCCN(C)C)C(=O)c3cc4ccccc4oc3=O)nc12`, with 23.1 µM [falling, single point]. For the compound `CN(c1ccccc1)S(=O)(=O)c1ccc(Cl)c(C(=O)Nc2nc3ccccc3[nH]2)c1`, under setting [1], the AC50 is 9.2 µM [falling, partial curve]. Still for that read-out and setting: for `Cc1cc(C)cc(OCCn2c(C3CC(=O)N(c4ccccc4Cl)C3)nc3ccccc32)c1` (configuration not stated) the value was 2.06 µM [rising, full curve]. Turning to `O=C(NNC(=S)Nc1ccccc1Cl)c1ccccc1Br`, the AC50 is, setting by setting: under setting [1], 14.1 µM [falling, single point]; under setting [2], 5.62 µM [falling, single point].

With `COc1ccc(C2CC(=O)N(C)c3ccccc3S2)cc1` (configuration not stated), the AC50 under setting [1] was 7.08 µM [falling, partial curve].

As for `CC(C)n1cnc2cc(NCc3ccco3)ccc21`, the AC50 under setting [1] is 7.08 µM [rising, full curve]. The same measure, in the same setting: for `Cc1occc1-c1nnc(SCC(=O)c2cc3ccccc3oc2=O)o1` the value was 14.1 µM [falling, single point]. On the same count and under the same terms, then `CC1=C(C#N)C(c2ccccc2O)C(C#N)=C(C)N1`, with 0.631 µM [falling, full curve, poor fit].

`Cc1nnc(N/N=C/c2c(Cl)cccc2Cl)n1N`: the half-maximal activity concentration (AC50) under setting [1] was 5.62 µM [rising, single point].

Turning to `CCOC(=O)C1CCN(C(=O)CCNC(=O)c2cc(OC)c(OC)c(OC)c2)CC1`, the half-maximal activity concentration (AC50) under setting [1] was 14.1 µM [rising, single point]. `Cc1[nH]c(-c2ccc(F)cc2)cc1C(=O)N1CCN(c2ccccc2)CC1`: the AC50 under setting [1] was 17.8 µM [falling, single point]. Same read-out and setting: for `Cc1ccccc1NC(=O)/C(C#N)=C/c1ccsc1` the value was 32.6 µM [falling, single point].

For `COc1ccc(/C=C2\C(=O)c3ccccc3OC2c2ccccc2)cc1` (configuration not stated), the AC50 under setting [1] was 15.8 µM [rising, single point]. Still for that read-out and setting: for `COc1ccc(-c2cc(N3CCCC3)n3ncnc3n2)cc1` the value was 2.06 µM [rising, partial curve, poor fit]. The same measure, in the same setting: then `N#C/C(=C\c1c(F)cccc1Cl)c1nn(-c2ccccc2)c(-n2cccc2)c1C#N`, with 0.794 µM [falling, full curve, poor fit]; and `CCCCN1CCc2c1nc1ccc(Br)cc1c2N`, with 7.31 µM [falling, single point]. On the same count and under the same terms, for `CC1=CC(C)(C)N(C(=O)c2ccccc2)c2ccccc21` the value was 35.5 µM [rising, single point]; for `COc1ccc(-c2cc(C(F)(F)F)n3nc(C(=O)NCc4ccco4)cc3n2)cc1OC`, 0.103 µM [rising, full curve, poor fit]; for `Cc1ccccc1C(=O)Nc1ccc(Br)cn1`, 4.47 µM [falling, partial curve].

As to `COc1ccc(S(=O)(=O)N2CCCCCC2)cc1C(=O)Nc1cc(C)ccn1`, the AC50 under setting [1] is 23.1 µM [falling, single point]. Still for that read-out and setting: for `COc1ccc(OC)c(C2/C(=C(\O)c3ccc(OC)c(Cl)c3)C(=O)C(=O)N2CCN(C)C)c1` (configuration not stated) the value was 6.51 µM [rising, single point]. Still for that read-out and setting: for `COc1ccccc1-c1nc(C#N)c(N2CC(C)CC(C)C2)o1` (configuration not stated) the value was 35.5 µM [falling, single point]; for `CC(C)=CC(=O)Nc1nc2ccc([N+](=O)[O-])cc2s1`, 10 µM [falling, partial curve, poor fit]. The same measure, in the same setting: then `CC(C)NC(=O)c1onc(CSc2ccc(F)cc2)c1C(=O)O`, with 35.5 µM [falling, single point]; and `CN(CCOc1ccc(Cl)cc1)C(=O)c1ccc(S(=O)(=O)N2CCOCC2)cc1`, with 35.5 µM [falling, single point]. In the case of `Cc1cccc(NC(=O)COc2ccc3c(c2)CCC3)n1`, the AC50 under setting [1] is 6.51 µM [falling, partial curve, poor fit]. The same measure, in the same setting: then `C/C(=N/NS(=O)(=O)c1ccc(Cl)cc1)c1ccncc1`, with 11.2 µM [falling, partial curve]; and `CCC(=O)Nc1ccc(NC(=O)c2ccc3c(c2)OCO3)cc1`, with 5.8 µM [falling, full curve, poor fit].

On to `CCOC(=O)C(=CNc1ccc2c(c1)c1ccccc1n2CC)C(=O)OCC`, for which, under setting [1], the AC50 was 15.8 µM [falling, partial curve, poor fit]. Same read-out and setting: for `CCc1c(C)nc(SCC(=O)Nc2ccc(Br)cc2)[nH]c1=O` the value was 1.46 µM [falling, partial curve, poor fit]. Regarding `CC(C)Oc1ccc(C(=O)Nc2ccccc2N2CCCC2)cc1`, the concentration at half-maximal activity (AC50) under setting [1] was 29.1 µM [falling, single point]. As to `Cc1ccccc1C(=O)NC(=S)Nc1ccc(S(=O)(=O)N2CCOCC2)cc1`, under setting [1], the AC50 is 2.31 µM [falling, full curve]. Take `CCc1ccc(C(=O)N2CCN(c3ccc(NC(=O)c4cccnc4)cc3)CC2)cc1`: the AC50 under setting [1] was 35.5 µM [falling, single point].

Regarding `COc1ccccc1N1C(=O)CC(Nc2ccc(N3CCOCC3)cc2)C1=O` (configuration not stated), the AC50 under setting [1] is 35.5 µM [falling, single point]. On to `CC(=O)Nc1ccc(C(=O)OCC(=O)NC(=O)NC(C)(C)C)cc1`, for which the AC50 under setting [1] is 11.6 µM [falling, partial curve, poor fit]. For `Cc1c(N=Cc2ccc[nH]2)c(=O)n(-c2ccccc2)n1C`, the AC50 under setting [1] is 15.8 µM [rising, single point]. On the same count and under the same terms, for `O=C(c1ccc([N+](=O)[O-])cc1Cl)N1CCN(c2ccccn2)CC1` the value was 35.5 µM [falling, single point]. As to `O=Cc1c(Nc2cccc(C(F)(F)F)c2)nc2ccccn2c1=O`, the AC50 under setting [1] was 0.282 µM [rising, full curve, poor fit].
